Data from paper PMC4990929.
Results are given in words; binding and its absence hold for the method and conditions named. For part of these data: Binding can be weak; no strength is given. Where a sequence is shown, tags or fusion partners need not be part of it.

B1: AtCIPK1 (Arabidopsis thaliana CBL-interacting protein kinase 1), two-hybrid fusion (enzyme, UniProt Q8RWC9 1-444)
chain: MVRRQEEEKKAEKGMRLGKYELGRTLGEGNFGKVKFAKDTVSGHSFAVKIIDKSRIADLNFSLQIKREIRTLKMLKHPHIVRLHEVLASKTKINMVMELVTGGELFDRIVSNGKLTETDGRKMFQQLIDGISYCHSKGVFHRDLKLENVLLDAKGHIKITDFGLSALPQHFRDDGLLHTTCGSPNYVAPEVLANRGYDGAASDIWSCGVILYVILTGCLPFDDRNLAVLYQKICKGDPPIPRWLSPGARTMIKRMLDPNPVTRITVVGIKASEWFKLEYIPSIPDDDDEEEVDTDDDAFSIQELGSEEGKGSDSPTIINAFQLIGMSSFLDLSGFFEQENVSERRIRFTSNSSAKDLLEKIETAVTEMGFSVQKKHAKLRVKQEERNQKGQVGLSVTAEVFEIKPSLNVVELRKSYGDSCLYRQLYERLLKDVGTSSPEQEIVT
B2: AtCIPK8 (Arabidopsis thaliana CBL-interacting protein kinase 8), two-hybrid fusion (enzyme, UniProt Q9STV4 1-445)
chain: MVVRKVGKYELGRTIGEGTFAKVKFAQNTETGESVAMKIVDRSTIIKRKMVDQIKREISIMKLVRHPCVVRLYEVLASRTKIYIILEYITGGELFDKIVRNGRLSESEARKYFHQLIDGVDYCHSKGVYHRDLKPENLLLDSQGNLKISDFGLSALPEQGVTILKTTCGTPNYVAPEVLSHKGYNGAVADIWSCGVILYVLMAGYLPFDEMDLPTLYSKIDKAEFSCPSYFALGAKSLINRILDPNPETRITIAEIRKDEWFLKDYTPVQLIDYEHVNLDDVYAAFDDPEEQTYAQDGTRDTGPLTLNAFDLIILSQGLNLATLFDRGKDSMKHQTRFISHKPANVVLSSMEVVSQSMGFKTHIRNYKMRVEGLSANKTSHFSVILEVFKVAPSILMVDIQNAAGDAEEYLKFYKTFCSKLDDIIWKPPDASMRNRVTKAKSKRR

What was measured:
[1] = target: BD-TvCBL2 (calcineurin B-like protein 2 from Trichomonas vaginalis, binding domain fusion) (Trichomonas vaginalis); test: two-hybrid
[2] = target: BD-TvCBL1 (calcineurin B-like protein 1 from Trichomonas vaginalis, binding domain fusion) (Trichomonas vaginalis); test: two-hybrid

Binder | binding [1] | binding [2]
B1 | no binding | 
B2 | no binding | binds
